The target of the assay is T1, histone deacetylase 6 (HDAC6), endogenous in mIMCD3 cells (mouse (endogenous in mIMCD3)) (UniProt Q9Z2V5).
T1 sequence: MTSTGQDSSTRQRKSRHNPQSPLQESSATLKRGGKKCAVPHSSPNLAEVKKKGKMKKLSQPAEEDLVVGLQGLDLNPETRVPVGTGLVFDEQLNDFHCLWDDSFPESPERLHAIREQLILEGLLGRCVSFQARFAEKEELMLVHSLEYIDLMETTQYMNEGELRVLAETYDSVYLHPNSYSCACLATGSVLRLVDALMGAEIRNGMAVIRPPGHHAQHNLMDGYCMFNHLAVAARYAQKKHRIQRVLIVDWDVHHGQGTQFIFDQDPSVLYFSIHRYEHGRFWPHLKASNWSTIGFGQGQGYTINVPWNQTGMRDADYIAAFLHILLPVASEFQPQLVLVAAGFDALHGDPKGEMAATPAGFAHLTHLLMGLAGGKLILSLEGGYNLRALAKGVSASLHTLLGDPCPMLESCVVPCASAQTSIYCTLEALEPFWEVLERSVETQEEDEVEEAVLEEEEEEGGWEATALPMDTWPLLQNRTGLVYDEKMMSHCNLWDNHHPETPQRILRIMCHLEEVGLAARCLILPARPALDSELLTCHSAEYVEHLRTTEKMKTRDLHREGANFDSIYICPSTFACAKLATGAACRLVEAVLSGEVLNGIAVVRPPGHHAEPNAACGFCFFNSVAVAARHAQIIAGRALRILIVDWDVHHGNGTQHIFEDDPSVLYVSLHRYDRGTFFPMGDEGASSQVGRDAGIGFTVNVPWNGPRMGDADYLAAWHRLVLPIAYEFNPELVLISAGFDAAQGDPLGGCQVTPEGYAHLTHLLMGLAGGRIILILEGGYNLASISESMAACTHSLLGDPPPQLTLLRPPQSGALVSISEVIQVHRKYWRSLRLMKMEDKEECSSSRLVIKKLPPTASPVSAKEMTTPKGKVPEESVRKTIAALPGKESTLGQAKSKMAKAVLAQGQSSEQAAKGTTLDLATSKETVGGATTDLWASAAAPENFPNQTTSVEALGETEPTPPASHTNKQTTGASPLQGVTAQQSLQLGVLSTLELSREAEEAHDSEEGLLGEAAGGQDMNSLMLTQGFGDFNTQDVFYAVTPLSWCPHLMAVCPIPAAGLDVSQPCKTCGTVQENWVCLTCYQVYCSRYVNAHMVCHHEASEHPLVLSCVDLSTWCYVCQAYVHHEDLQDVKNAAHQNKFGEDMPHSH
As to the kind of experiment: co-IP; immunoprecipitation of HDAC6 from wild-type or AKAP220-ΔPP1 mIMCD3 cell lysates, immunoblot for AKAP220.

The chains behind the UniProt entries cited, without tags or fusion partners. Where a name states a change or a piece, a line headed by the entry shows the natural chain unless it says otherwise.
UniProt E9Q777: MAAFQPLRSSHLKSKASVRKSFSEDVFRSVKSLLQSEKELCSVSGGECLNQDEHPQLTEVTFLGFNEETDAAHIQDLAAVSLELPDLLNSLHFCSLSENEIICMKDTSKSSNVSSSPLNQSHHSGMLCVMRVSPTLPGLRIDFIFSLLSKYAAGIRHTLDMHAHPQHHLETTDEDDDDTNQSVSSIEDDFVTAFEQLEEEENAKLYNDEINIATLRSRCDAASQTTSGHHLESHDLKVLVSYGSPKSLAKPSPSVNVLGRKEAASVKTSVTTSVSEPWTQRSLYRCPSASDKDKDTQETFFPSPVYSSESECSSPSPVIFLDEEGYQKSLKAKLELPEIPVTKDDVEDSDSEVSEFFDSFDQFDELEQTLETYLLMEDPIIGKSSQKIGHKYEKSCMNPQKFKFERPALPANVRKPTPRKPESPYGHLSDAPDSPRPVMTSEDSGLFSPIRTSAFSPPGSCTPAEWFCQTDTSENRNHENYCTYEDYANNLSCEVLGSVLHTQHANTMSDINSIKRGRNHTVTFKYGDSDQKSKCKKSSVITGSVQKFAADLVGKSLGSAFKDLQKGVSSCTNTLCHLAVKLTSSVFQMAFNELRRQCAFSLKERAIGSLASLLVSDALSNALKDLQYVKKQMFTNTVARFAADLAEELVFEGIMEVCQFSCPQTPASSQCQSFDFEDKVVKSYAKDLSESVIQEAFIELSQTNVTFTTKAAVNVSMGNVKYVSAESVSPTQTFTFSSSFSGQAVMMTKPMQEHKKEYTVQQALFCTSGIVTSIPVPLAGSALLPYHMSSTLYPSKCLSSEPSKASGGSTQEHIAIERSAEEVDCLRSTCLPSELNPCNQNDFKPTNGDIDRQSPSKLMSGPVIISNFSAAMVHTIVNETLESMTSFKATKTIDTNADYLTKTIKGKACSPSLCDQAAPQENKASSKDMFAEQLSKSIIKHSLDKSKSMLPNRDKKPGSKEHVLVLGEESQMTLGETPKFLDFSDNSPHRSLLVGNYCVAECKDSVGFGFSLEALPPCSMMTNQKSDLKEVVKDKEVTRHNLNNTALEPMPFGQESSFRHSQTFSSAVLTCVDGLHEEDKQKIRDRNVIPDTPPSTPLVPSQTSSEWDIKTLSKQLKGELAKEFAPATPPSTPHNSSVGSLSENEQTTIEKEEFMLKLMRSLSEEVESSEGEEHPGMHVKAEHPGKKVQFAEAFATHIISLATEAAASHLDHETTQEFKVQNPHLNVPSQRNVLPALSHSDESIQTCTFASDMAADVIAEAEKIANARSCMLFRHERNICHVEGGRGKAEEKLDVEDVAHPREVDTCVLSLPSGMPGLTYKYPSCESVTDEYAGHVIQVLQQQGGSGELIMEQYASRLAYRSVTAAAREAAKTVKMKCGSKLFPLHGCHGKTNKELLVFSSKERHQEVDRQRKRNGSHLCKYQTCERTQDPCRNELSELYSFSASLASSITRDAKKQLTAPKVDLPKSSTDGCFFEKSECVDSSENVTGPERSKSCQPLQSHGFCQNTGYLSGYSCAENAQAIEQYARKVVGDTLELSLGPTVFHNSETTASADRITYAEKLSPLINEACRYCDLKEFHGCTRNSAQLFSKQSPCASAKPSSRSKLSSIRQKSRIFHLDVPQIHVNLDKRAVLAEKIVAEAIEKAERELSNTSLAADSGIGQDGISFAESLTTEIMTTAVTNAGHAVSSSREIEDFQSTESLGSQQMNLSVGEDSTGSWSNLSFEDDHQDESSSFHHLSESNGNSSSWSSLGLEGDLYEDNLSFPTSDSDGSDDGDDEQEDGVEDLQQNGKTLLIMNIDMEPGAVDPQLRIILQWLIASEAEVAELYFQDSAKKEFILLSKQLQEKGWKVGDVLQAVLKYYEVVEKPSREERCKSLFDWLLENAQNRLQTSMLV

These are yes or no findings as the source states them, for the method shown. Binding seen in cells or lysates may run through a third protein. Binding can be weak; no strength is given. Tags and fused reporters may be left off the sequences shown.

For “AKAP220-ΔPP1 (knock-in mutant, KVQF motif replaced by TATA) (from UniProt E9Q777)”, the binding result is listed as “binds”.

Source of the values: paper PMC8291974.
